Source: PubChem BioAssay AID1259308 (NCATS, 2017)
This is one part, drawn at random, of about 59,000 deposited reagents. About 1,510 of all reagents (2.6%) were called active. 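Calls use total luciferase alone and ignore viability, so some active siRNAs may act by altering cell number.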 Reagents against one gene are numbered here.

Screen: 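Genes whose loss raises luciferase production in HEK293 cells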 (primary screen)
System: human HEK293 embryonic kidney cells stably expressing firefly luciferase (HEK-CMV-Luc2-Hygro)
Reagent: single siRNA against human genes, 0.8 pmol siRNA per well
Timing: 72 h
Measured: 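Luciferase light (ONE-Glo) measured on one replicate plate set and viability (CellTiter-Glo) on the other, scaled to a negative control siRNA, with robust z-scores and luciferase per cell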
Reading the numbers: total luciferase, z-score and total luciferase, % of control: higher = more reporter protein produced; luciferase per cell, z-score: higher = more reporter output per viable cell; viable cells, % of control: higher = more viable cells
Active means: 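Active when the median/MAD z-score for overall luciferase is greater than 3; a gene was taken forward for validation with new siRNAs if at least two of its three siRNAs passed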
Calls: active = raised luciferase; inactive = no rise

target | reagent | total luciferase, z-score | total luciferase, % of control | luciferase per cell, z-score | viable cells, % of control | activity call
SETD2 (GeneID 29072) | 1 | -0.658 | 68.8 | -0.323 | 83.7 | inactive
SETD2 (GeneID 29072) | 2 | 0.607 | 94 | 0.317 | 96.6 | inactive
SETD2 (GeneID 29072) | 3 | 0.187 | 85.6 | 0.76 | 78.3 | inactive
GSS (GeneID 2937) | 1 | -0.00156 | 81.9 | -0.0401 | 92.4 | inactive
GSS (GeneID 2937) | 2 | 1.44 | 110 | 1.79 | 77 | inactive
GSS (GeneID 2937) | 3 | 0.789 | 97.6 | 0.792 | 88.5 | inactive
ZNF766 (GeneID 90321) | 1 | 0.144 | 84.8 | 1.04 | 72.1 | inactive
ZNF766 (GeneID 90321) | 2 | -0.328 | 75.4 | 0.38 | 76.2 | inactive
ZNF766 (GeneID 90321) | 3 | 0.0396 | 82.7 | 0.61 | 78.7 | inactive
PBOV1 (GeneID 59351) | 1 | -1.88 | 44.5 | -0.813 | 61.6 | inactive
PBOV1 (GeneID 59351) | 2 | 2.93 | 140 | 2.24 | 86.8 | inactive
PBOV1 (GeneID 59351) | 3 | 0.449 | 90.8 | -0.309 | 110 | inactive
CLEC5A (GeneID 23601) | 1 | 0.414 | 90.1 | 2.02 | 59.1 | inactive
CLEC5A (GeneID 23601) | 2 | -0.282 | 76.3 | 0.706 | 70.8 | inactive
CLEC5A (GeneID 23601) | 3 | 1.3 | 108 | 2.67 | 59.6 | inactive
MRI1 (GeneID 84245) | 1 | -0.52 | 71.5 | -0.438 | 89.7 | inactive
MRI1 (GeneID 84245) | 2 | -0.118 | 79.5 | -0.499 | 101 | inactive
MRI1 (GeneID 84245) | 3 | -0.0538 | 80.8 | -0.344 | 98.9 | inactive
PSMD10 (GeneID 5716) | 1 | -0.945 | 63.1 | -1.28 | 98.6 | inactive
PSMD10 (GeneID 5716) | 2 | -1.01 | 61.7 | -1.66 | 107 | inactive
PSMD10 (GeneID 5716) | 3 | -0.649 | 69 | -1.41 | 112 | inactive
SEC31A (GeneID 22872) | 1 | 0.986 | 101 | 0.622 | 96.3 | inactive
SEC31A (GeneID 22872) | 2 | 0.196 | 85.8 | -0.0222 | 96.4 | inactive
SEC31A (GeneID 22872) | 3 | -0.858 | 64.8 | -0.661 | 86.2 | inactive
